These are yes or no findings as the source states them, for the method shown. Binding seen in cells or lysates may run through a third protein. A yes stands for co-enrichment or nearness to the bait. Other partners may have been found. For some assays here: A no says only that the protein was not detected with the bait.
B1: DEK (protein, UniProt P35659 1-375)
chain: MSASAPAAEGEGTPTQPASEKEPEMPGPREESEEEEDEDDEEEEEEEKEKSLIVEGKREKKKVERLTMQVSSLQREPFTIAQGKGQKLCEIERIHFFLSKKKTDELRNLHKLLYNRPGTVSSLKKNVGQFSGFPFEKGSVQYKKKEEMLKKFRNAMLKSICEVLDLERSGVNSELVKRILNFLMHPKPSGKPLPKSKKTCSKGSKKERNSSGMARKAKRTKCPEILSDESSSDEDEKKNKEESSDDEDKESEEEPPKKTAKREKPKQKATSKSKKSVKSANVKKADSSTTKKNQNSSKKESESEDSSDDEPLIKKLKKPPTDEELKETIKKLLASANLEEVTMKQICKKVYENYPTYDLTERKDFIKTTVKELIS
B2: HIRIP3 (protein, UniProt Q9BW71 1-556)
chain: MAREKEMQEFTRSFFRGRPDLSTLTHSIVRRRYLAHSGRSHLEPEEKQALKRLVEEELLKMQVDEAASREDKLDLTKKGKRPPTPCSDPERKRFRFNSESESGSEASSPDYFGPPAKNGVAAEVSPAKEENPRRASKAVEESSDEERQRDLPAQRGEESSEEEEKGYKGKTRKKPVVKKQAPGKASVSRKQAREESEESEAEPVQRTAKKVEGNKGTKSLKESEQESEEEILAQKKEQREEEVEEEEKEEDEEKGDWKPRTRSNGRRKSAREERSCKQKSQAKRLLGDSDSEEEQKEAASSGDDSGRDREPPVQRKSEDRTQLKGGKRLSGSSEDEEDSGKGEPTAKGSRKMARLGSTSGEESDLEREVSDSEAGGGPQGERKNRSSKKSSRKGRTRSSSSSSDGSPEAKGGKAGSGRRGEDHPAVMRLKRYIRACGAHRNYKKLLGSCCSHKERLSILRAELEALGMKGTPSLGKCRALKEQREEAAEVASLDVANIISGSGRPRRRTAWNPLGEAAPPGELYRRTLDSDEERPRPAPPDWSHMRGIISSDGESN
B3: BANF1 (protein, UniProt O75531 1-89)
chain: MTTSQKHRDFVAEPMGEKPVGSLAGIGEVLGKKLEERGFDKAYVVLGQFLVLKKDEDLFREWLKDTCGANAKQSRDCFGCLREWCDAFL

Chains of the proteins cited; added tags and fusions are not shown. Lines headed by an entry give the natural chain unless they say otherwise; changes in a name come on top.
UniProt Q9BTC0: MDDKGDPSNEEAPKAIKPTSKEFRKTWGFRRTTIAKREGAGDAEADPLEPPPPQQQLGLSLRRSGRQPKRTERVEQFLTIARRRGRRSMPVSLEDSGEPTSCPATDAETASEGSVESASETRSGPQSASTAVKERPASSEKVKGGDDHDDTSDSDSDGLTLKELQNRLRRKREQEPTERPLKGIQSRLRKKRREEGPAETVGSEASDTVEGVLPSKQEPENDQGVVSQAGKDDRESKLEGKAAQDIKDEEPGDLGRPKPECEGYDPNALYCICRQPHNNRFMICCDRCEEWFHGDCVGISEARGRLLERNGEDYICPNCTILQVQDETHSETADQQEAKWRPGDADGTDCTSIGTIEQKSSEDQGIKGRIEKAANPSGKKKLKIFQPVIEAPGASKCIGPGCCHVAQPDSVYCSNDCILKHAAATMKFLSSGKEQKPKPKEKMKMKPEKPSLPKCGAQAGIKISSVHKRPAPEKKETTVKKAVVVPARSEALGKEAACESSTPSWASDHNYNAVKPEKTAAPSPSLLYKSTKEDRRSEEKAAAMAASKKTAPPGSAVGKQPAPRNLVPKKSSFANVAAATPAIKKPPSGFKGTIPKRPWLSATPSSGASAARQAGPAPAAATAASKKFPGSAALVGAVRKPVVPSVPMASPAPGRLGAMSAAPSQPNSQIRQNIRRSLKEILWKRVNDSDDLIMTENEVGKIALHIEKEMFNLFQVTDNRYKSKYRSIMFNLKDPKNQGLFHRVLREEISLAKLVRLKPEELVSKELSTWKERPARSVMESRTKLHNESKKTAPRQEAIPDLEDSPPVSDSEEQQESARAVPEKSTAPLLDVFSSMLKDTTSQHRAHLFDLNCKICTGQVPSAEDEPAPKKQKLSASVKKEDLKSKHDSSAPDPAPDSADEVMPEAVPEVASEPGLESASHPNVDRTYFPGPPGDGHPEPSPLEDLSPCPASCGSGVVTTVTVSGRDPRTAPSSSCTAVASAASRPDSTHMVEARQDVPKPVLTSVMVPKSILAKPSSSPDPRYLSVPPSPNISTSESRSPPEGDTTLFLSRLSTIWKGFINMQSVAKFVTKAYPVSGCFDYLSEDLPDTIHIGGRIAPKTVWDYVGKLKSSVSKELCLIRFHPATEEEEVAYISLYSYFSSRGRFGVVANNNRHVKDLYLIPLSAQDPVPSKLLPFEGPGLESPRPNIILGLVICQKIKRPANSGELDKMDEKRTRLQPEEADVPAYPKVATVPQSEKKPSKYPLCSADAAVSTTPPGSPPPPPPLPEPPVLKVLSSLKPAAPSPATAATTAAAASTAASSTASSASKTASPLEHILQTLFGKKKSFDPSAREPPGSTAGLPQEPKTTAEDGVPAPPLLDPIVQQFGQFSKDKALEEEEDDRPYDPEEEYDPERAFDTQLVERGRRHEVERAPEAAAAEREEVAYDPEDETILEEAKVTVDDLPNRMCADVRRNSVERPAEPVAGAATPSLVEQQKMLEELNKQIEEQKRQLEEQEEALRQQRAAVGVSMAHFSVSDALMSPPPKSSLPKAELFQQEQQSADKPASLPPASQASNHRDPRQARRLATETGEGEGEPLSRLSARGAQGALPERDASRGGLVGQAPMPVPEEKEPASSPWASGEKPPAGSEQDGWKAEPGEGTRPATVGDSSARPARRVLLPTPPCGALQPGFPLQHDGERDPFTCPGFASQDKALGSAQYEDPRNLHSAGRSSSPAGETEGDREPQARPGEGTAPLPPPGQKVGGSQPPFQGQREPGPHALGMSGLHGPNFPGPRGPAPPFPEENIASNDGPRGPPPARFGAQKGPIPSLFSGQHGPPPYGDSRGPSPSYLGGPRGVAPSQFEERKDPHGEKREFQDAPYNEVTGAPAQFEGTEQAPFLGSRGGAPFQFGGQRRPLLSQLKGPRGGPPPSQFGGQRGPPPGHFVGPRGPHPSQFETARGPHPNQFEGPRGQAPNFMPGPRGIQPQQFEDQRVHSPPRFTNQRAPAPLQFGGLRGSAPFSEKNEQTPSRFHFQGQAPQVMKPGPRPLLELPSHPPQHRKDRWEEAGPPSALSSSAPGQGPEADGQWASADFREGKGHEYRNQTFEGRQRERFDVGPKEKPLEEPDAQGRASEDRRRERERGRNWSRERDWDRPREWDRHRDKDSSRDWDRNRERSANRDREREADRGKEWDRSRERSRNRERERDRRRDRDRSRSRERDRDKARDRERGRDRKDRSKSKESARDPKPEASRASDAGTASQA
UniProt P21127: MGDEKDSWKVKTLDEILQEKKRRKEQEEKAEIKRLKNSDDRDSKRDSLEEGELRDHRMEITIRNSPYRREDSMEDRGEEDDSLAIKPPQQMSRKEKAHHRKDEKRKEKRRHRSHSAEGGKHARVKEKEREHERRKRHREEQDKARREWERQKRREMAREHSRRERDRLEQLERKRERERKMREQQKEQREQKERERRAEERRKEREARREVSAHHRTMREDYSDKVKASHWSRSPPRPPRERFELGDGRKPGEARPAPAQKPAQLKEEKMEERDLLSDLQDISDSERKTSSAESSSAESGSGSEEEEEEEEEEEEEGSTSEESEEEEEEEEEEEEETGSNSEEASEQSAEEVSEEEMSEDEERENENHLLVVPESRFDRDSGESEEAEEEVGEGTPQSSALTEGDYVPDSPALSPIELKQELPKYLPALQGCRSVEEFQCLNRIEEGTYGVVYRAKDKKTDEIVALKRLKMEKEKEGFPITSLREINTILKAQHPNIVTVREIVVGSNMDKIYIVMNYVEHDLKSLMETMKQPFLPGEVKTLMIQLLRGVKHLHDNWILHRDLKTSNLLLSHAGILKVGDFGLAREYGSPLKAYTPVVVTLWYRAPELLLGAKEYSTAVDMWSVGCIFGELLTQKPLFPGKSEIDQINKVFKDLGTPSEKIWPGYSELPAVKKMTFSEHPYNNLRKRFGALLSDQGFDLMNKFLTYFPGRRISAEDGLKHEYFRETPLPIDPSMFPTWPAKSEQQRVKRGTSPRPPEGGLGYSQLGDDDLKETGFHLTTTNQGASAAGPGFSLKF
UniProt Q5SSJ5: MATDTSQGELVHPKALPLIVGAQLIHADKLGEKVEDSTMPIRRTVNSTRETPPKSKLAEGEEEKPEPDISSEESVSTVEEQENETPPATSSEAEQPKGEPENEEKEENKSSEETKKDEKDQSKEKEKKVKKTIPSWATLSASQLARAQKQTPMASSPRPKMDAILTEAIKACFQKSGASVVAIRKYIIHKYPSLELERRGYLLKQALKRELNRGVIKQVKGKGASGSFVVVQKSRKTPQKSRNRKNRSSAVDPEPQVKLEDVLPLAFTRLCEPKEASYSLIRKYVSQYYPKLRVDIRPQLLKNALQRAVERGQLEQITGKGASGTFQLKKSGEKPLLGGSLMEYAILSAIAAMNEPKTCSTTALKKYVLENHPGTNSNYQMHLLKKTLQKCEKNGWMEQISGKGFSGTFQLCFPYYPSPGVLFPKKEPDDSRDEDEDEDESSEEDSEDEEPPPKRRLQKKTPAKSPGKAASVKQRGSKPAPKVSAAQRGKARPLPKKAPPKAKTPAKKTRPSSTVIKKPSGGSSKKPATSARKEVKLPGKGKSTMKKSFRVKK
UniProt P09874: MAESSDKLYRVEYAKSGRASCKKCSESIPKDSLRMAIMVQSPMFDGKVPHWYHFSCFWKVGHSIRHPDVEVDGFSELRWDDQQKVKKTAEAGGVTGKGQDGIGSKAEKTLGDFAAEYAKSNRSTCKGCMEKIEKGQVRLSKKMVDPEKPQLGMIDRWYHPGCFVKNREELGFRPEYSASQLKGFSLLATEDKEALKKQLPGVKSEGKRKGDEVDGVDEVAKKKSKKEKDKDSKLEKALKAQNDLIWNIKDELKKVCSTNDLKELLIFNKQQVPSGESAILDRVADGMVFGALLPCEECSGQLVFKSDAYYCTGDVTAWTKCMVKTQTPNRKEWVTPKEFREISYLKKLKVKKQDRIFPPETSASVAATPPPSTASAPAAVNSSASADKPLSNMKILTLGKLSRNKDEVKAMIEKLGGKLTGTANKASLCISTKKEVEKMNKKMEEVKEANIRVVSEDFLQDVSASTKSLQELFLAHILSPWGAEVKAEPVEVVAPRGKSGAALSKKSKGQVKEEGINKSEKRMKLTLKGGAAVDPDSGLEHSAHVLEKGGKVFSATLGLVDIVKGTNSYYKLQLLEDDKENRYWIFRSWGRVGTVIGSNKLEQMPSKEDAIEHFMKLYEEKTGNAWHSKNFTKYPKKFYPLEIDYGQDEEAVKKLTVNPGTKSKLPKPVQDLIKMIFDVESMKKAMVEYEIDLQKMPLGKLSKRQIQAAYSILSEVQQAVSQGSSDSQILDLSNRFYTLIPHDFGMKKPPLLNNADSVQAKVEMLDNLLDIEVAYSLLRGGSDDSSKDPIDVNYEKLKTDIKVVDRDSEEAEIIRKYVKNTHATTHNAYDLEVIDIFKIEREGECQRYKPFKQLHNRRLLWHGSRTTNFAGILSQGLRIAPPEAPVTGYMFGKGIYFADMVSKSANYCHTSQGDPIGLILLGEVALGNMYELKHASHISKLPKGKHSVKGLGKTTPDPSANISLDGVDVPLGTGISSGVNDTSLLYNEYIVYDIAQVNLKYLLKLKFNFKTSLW
UniProt Q9UGN5: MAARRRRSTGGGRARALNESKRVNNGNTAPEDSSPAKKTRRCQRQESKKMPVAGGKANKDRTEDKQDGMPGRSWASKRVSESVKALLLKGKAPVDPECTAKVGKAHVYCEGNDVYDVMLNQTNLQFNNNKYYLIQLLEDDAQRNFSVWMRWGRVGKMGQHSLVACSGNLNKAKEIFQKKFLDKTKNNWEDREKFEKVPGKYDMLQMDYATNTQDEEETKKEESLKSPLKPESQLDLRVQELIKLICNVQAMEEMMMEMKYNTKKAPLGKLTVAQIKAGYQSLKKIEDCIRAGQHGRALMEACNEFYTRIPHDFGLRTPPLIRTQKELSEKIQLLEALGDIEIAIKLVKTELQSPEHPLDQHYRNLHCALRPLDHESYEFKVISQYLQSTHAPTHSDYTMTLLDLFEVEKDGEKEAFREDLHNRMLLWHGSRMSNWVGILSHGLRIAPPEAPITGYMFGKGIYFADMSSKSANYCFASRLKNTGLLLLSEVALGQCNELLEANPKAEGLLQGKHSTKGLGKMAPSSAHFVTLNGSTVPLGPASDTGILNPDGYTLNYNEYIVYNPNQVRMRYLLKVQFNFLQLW
UniProt P18887: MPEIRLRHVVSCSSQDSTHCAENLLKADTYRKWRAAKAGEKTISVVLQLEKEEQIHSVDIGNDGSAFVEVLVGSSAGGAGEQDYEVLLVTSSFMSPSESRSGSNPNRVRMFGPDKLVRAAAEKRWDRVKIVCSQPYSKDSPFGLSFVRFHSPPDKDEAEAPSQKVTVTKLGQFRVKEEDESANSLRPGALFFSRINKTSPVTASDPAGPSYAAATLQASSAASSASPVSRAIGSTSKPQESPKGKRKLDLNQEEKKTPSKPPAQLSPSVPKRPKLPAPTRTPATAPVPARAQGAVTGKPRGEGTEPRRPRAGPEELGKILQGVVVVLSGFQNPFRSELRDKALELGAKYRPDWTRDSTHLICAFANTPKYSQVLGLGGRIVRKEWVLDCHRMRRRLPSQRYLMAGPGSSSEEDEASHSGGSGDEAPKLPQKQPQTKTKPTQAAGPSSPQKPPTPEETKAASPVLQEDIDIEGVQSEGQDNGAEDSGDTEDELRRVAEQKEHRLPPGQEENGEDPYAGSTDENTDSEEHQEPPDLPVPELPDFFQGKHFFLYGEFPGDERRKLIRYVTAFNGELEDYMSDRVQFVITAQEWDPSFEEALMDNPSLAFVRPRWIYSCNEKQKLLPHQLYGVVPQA
UniProt P67809: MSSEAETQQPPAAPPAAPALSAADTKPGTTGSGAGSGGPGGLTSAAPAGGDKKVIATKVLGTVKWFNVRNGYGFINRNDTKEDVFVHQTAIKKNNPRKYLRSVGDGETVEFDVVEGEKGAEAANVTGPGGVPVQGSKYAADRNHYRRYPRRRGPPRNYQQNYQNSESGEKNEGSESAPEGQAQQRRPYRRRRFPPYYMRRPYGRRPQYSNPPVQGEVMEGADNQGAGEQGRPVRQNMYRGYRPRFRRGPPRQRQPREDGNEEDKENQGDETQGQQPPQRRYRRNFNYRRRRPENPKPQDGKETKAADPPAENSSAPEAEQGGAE
UniProt O75367: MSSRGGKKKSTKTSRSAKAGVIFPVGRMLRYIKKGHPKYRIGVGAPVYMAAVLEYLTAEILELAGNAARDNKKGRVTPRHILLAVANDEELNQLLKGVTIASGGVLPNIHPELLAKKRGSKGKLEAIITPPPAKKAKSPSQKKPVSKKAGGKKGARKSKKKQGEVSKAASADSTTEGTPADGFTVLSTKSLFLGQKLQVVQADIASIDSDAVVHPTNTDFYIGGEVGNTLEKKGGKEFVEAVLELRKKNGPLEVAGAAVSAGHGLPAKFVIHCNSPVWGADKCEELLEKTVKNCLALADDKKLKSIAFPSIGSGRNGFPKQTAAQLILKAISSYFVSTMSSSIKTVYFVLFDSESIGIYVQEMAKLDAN

Each molecule was assayed against FLAG-DIDO3 (UniProt Q9BTC0) (assay: affinity purification with mass spectrometry; anti-FLAG M2 magnetic beads on lysates of HEK293T transfected with FLAG-DIDO constructs (50 mM Tris-Cl pH 8, 150 mM NaCl, 0.1% Triton, benzonase), 2 h at 4 °C; against empty vector; three replicates).
For “CDK11B (from UniProt P21127 1-795) (enzyme)”, the binding was “binds”. For HP1BP3 (from UniProt Q5SSJ5 1-553), the binding was “binds”. With “PARP1 (from UniProt P09874 1-1014) (enzyme)” the binding was “binds”. In the case of “PARP2 (from UniProt Q9UGN5 1-583) (enzyme)”, the binding is reported as “binds”. For XRCC1 (from UniProt P18887 1-633), the binding was “binds”. For YB1 (from UniProt P67809 1-324), the binding was “binds”. With macroH2A.1 (from UniProt O75367 1-369) the binding was “binds”. In the case of B1, the binding is reported as “binds”. For B2, the binding was “binds”. With B3 the binding was “binds”.

Each molecule was assayed against FLAG-DIDO3 ∆SPOC (UniProt Q9BTC0) in the same assay as above.
With macroH2A.1 (from UniProt O75367 1-369) the binding was “binds”.

What follows are molecules tested against FLAG-DIDO3 ∆N in the same assay as above.
For B1, the binding was “no binding”. In the case of B2, the binding is reported as “no binding”. For B3, the binding was “no binding”.

— article PMC10689479
